This is one part of the list. Repeats in this data set agree poorly, so a single value says little.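 HEK293T cells were given each compound shortly before transfection with a reporter in which red mCherry is followed by the SARS-CoV-2 frameshift element and then GFP in the −1 frame, so GFP appears only after frameshifting.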
Test system: SARS-CoV-2 -1 PRF reporter mCherry-FSE-GFP(-1)
Test: mCherry (red) intensity as percent of control; higher = higher upstream reporter expression
Conditions: 10 µM; 24 h; HEK293T

Structure (SMILES) | mCherry
CC(C)c1nc(N(C)S(C)(=O)=O)nc(-c2ccc(F)cc2)c1/C=C/[C@@H](O)C[C@@H](O)CC(=O)O [Rosuvastatin] | 77.4%
Clc1ccc(OCC2=NCCc3ccccc32)cc1 [famotine] | 64.2%
NC(=O)CCC/N=C(\c1ccc(Cl)cc1)c1cc(F)ccc1O [progabide] | 83.3%
COc1cc2c(c(OC)c1OC)-c1c(cc3c(c1OC)OCO3)C[C@H](C)[C@@](C)(O)C2 [besigomsin] | 100%
O=C1Cc2cc(CCN3CCN(c4nsc5ccccc45)CC3)c(Cl)cc2N1 | 114%
Nc1nc(O)c2ncn(CCC(CO)CO)c2n1 [Penciclovir] | 50%
Nc1ccn([C@@H]2CS[C@H](CO)O2)c(=O)n1 [lamivudine] | 103%
CCC1=C(C)CN(C(=O)NCCc2ccc(S(=O)(=O)NC(=O)N[C@H]3CC[C@H](C)CC3)cc2)C1=O | 83.3%
c1cnc(N2CCN(Cc3ccc4c(c3)OCO4)CC2)nc1 [Piribedil·2HCl] | 107%
N=C(N)NC(=O)c1nc(Cl)c(N)nc1N [Amiloride] | 89.9%
O=C(O)C1(C(=O)O)CCC1.[NH2-].[NH2-].[Pt+2] [Carboplatin] | 74%
CCC[C@@H]1C[C@@H](C(=O)N[C@@H]([C@H]2O[C@H](SC)[C@H](O)[C@@H](O)[C@H]2O)[C@@H](C)O)N(C)C1 [lincomycin] | 118%
O=C(NCCN1CCN(c2ncccn2)CC1)C12CC3CC(CC(C3)C1)C2 [adatanserin] | 110%
Cc1cncc(CN2CCC(=C3c4ccc(Cl)cc4CCc4cccnc43)CC2)c1 [rupatadine] | 54.6%
